Experimental findings from article PMC12613626 are described below.

By UniProt entry, the sequences of proteins in these tests, tags left out.
UniProt Q13562: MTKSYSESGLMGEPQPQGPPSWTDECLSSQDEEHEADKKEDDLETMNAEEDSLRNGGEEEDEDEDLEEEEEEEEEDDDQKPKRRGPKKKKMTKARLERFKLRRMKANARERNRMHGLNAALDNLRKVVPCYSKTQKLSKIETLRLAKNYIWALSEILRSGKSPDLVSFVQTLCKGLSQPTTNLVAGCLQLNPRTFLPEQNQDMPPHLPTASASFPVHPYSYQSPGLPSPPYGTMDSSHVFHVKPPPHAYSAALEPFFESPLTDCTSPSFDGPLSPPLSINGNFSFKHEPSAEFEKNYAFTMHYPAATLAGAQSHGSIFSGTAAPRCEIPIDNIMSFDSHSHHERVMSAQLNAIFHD

The target of this assay is GFP-labeled NeuroD1 (neurogenic differentiation factor 1) overexpressed in Panc-1 cells (UniProt Q13562). In words: affinity purification with mass spectrometry; Co-IP from OE-NeuroD1-GFP Panc-1 cells against normal IgG control; lysis in NETN buffer (20 mM Tris-HCl pH 8.0, 100 mM NaCl, 1 mM EDTA, 0.5% NP-40), antibody pre-bound to Protein A/G agarose, 4 h at 4 °C, five washes, mass spectrometry; hits crossed with a PPI network database.

These are yes or no findings as the source states them, for the method shown. In cells and extracts the contact can be indirect. Here binding means that the protein was enriched with, or labelled near, the bait; the list need not be complete. Sequences can lack the tags named with a protein.

B1: Neurogenin 3 (Neurog3) in NeuroD1-GFP-overexpressing Panc-1 cells (protein, UniProt Q9Y4Z2 1-214)
chain: MTPQPSGAPTVQVTRETERSFPRASEDEVTCPTSAPPSPTRTRGNCAEAEEGGCRGAPRKLRARRGGRSRPKSELALSKQRRSRRKKANDRERNRMHNLNSALDALRGVLPTFPDDAKLTKIETLRFAHNYIWALTQTLRIADHSLYALEPPAPHCGELGSPGGSPGDWGSLYSPVSQAGSLSPAASLEERPGLLGATFSACLSPGSLAFSDFL
Turning to B1, the binding entry is “binds”.
